Consider 37 targets from the supplement of paper PMC5836539.

The chains behind the UniProt entries cited, without tags or fusion partners. Where a name states a change or a piece, a line headed by the entry shows the natural chain unless it says otherwise.
UniProt P27824: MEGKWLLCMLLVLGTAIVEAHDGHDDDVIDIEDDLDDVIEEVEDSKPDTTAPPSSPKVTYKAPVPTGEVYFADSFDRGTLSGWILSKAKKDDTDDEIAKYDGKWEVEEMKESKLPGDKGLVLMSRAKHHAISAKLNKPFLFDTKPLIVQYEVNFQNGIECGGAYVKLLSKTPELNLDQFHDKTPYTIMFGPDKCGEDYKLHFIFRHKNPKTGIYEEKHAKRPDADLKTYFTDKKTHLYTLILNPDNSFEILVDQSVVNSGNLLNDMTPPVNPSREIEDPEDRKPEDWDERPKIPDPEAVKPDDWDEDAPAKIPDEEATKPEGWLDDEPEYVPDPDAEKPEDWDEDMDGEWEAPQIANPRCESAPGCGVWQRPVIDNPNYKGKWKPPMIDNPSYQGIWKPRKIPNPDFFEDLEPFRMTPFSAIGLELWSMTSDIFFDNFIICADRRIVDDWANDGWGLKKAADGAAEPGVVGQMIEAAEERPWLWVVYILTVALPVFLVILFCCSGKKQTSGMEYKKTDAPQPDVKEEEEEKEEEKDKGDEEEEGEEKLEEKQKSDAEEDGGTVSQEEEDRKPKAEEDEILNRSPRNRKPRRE
UniProt O60711: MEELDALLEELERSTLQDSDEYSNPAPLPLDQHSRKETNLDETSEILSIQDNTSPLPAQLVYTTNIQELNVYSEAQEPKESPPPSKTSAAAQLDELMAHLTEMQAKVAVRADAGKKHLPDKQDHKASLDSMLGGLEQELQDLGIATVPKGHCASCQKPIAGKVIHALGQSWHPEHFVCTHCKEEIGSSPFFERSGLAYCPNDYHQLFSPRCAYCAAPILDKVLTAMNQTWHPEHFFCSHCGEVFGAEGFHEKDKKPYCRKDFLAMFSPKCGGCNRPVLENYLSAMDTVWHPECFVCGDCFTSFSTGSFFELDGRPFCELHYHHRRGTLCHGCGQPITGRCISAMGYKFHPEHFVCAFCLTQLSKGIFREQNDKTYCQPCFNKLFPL
UniProt O00559: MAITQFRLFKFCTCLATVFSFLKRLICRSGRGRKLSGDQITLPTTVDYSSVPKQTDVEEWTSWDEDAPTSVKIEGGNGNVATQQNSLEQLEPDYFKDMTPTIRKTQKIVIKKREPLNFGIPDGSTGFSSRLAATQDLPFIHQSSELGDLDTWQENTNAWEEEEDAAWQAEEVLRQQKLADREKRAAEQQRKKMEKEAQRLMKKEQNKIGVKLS
UniProt Q9UQ35: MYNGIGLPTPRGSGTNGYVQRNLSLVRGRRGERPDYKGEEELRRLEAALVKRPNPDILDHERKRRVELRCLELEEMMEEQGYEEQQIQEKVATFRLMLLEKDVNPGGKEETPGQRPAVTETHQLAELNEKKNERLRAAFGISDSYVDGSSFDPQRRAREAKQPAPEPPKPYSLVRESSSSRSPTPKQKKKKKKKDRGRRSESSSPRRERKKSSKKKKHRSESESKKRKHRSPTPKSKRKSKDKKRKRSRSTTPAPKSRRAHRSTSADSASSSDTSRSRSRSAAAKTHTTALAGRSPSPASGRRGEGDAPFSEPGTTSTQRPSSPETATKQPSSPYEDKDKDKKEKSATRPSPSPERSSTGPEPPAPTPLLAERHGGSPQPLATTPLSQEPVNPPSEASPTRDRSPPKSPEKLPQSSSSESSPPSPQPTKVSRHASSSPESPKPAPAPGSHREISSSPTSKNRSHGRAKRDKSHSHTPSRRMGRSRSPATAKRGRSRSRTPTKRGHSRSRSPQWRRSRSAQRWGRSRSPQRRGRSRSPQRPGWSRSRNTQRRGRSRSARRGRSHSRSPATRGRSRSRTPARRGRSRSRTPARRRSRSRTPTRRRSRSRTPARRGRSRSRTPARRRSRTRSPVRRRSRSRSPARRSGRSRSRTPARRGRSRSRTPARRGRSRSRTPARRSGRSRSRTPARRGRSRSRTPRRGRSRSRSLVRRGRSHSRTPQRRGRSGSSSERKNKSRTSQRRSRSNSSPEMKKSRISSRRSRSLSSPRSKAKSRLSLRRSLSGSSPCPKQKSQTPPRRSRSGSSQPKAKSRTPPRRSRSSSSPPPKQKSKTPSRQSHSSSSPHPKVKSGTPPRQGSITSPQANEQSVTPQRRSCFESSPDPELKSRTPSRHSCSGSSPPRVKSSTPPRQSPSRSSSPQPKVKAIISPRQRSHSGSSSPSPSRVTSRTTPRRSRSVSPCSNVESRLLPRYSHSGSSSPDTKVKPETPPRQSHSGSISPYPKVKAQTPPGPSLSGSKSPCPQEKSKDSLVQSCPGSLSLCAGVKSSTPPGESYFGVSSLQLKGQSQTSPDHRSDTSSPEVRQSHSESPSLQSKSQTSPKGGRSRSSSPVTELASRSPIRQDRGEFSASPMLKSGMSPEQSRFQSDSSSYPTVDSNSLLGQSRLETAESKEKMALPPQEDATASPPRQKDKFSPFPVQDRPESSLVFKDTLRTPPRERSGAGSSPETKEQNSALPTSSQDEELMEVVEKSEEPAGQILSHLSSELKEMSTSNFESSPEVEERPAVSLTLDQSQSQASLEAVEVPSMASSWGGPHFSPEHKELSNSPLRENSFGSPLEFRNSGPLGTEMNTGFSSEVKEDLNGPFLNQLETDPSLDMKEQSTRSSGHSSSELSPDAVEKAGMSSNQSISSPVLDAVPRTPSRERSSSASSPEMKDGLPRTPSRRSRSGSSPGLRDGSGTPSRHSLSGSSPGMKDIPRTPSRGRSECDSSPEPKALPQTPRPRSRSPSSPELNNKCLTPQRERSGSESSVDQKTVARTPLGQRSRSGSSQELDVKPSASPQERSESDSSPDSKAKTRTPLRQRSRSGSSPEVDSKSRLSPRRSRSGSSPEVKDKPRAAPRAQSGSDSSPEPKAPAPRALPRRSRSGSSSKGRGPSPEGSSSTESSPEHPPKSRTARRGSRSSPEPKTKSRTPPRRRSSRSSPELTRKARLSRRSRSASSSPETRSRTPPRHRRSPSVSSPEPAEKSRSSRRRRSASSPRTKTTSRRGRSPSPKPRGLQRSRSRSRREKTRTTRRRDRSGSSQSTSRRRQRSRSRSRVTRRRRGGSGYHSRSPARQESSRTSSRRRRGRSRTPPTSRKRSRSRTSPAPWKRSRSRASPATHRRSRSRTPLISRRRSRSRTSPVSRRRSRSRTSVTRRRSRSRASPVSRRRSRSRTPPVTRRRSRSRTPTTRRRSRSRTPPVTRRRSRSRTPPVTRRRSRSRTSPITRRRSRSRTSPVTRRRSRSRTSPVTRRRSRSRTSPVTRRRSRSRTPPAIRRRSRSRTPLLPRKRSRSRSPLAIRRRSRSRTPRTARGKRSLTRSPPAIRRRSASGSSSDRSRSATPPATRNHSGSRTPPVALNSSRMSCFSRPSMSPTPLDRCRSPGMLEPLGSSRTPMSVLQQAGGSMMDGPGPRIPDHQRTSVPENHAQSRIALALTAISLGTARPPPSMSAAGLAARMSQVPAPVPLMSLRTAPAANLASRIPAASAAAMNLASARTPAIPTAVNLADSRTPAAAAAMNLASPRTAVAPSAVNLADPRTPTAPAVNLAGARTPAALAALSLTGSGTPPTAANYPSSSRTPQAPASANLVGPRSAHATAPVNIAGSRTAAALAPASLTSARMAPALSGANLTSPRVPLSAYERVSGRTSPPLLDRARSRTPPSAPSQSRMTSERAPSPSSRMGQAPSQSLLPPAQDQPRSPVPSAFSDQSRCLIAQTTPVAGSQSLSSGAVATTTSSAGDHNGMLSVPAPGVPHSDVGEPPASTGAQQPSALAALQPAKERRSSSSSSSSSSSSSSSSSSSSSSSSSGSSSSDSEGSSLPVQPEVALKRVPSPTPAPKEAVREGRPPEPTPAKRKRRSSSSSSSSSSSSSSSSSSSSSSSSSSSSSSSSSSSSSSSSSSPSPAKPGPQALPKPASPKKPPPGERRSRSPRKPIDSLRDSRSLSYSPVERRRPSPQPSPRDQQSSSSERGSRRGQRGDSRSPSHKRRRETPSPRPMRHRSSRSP
UniProt P56693: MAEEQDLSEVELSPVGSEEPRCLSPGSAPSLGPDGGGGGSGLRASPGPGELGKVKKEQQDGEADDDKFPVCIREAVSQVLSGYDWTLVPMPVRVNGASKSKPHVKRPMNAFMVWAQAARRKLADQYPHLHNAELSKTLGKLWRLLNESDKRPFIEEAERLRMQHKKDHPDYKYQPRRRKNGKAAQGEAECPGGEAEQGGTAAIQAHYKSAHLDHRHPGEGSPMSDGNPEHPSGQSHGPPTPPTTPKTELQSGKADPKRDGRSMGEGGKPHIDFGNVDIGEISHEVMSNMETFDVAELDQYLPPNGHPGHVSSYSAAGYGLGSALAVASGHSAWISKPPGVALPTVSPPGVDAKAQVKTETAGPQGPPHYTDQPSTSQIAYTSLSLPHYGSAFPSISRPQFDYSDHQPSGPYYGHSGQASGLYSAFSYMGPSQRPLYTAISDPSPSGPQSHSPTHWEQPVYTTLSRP
UniProt Q13884: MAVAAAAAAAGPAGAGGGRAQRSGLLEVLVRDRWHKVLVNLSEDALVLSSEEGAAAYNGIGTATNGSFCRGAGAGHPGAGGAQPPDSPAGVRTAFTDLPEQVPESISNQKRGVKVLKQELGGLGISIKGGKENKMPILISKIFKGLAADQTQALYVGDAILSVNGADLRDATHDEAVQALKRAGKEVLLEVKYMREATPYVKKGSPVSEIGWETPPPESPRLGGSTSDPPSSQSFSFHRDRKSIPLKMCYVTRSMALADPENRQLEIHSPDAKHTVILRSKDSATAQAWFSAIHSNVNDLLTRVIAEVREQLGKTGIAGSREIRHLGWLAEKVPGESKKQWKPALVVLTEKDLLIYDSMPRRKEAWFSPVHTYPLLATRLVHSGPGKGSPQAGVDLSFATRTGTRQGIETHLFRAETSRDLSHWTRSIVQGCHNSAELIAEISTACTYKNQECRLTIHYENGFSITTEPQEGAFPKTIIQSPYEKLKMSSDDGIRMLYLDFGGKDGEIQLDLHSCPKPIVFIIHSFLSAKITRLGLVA
UniProt P06748, whole entry, looked up: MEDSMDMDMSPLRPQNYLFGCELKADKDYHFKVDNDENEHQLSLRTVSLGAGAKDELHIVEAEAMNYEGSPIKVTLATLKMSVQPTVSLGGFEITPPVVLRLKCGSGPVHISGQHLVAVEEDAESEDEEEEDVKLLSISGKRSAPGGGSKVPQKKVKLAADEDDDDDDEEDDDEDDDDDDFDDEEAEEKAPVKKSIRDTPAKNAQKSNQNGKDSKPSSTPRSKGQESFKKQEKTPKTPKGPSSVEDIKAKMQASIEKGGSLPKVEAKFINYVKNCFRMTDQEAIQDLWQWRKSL
UniProt P31323, whole entry: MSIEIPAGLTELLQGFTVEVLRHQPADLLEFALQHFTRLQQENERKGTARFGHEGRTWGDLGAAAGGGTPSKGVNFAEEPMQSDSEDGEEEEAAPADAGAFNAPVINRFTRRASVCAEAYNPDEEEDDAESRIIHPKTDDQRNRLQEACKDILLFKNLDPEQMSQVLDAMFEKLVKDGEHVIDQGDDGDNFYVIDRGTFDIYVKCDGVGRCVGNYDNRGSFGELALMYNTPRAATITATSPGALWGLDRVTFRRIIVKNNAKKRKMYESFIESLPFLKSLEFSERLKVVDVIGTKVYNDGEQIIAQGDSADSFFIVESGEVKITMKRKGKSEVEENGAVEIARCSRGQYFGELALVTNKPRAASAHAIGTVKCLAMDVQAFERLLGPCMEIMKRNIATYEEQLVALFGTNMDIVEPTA
UniProt Q08J23, whole entry, looked up: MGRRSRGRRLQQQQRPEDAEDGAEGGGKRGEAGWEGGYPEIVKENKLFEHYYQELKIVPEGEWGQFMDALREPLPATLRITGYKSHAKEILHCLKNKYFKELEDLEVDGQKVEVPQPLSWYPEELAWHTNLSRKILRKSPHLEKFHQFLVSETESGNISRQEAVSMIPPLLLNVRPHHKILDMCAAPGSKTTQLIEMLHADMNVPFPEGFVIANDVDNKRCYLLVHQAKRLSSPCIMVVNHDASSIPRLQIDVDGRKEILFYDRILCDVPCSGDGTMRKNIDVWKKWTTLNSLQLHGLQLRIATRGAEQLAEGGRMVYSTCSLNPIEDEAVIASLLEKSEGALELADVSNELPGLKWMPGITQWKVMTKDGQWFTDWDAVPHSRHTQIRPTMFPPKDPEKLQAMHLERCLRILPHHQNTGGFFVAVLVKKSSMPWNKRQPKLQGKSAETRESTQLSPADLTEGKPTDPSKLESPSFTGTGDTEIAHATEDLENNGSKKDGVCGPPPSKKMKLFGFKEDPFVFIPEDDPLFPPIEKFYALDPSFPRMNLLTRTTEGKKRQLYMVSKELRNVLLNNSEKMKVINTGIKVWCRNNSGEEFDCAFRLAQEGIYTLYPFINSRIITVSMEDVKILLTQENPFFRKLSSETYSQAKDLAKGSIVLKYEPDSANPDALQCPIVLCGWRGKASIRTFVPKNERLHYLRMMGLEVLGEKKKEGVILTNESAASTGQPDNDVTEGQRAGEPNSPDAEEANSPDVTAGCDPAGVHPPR

Compound in assay [1]: T1, CC[C@@H](C)Nc1cc(C(=O)N[C@H]2C[C@H]3CC[C@@H](C2)N3c2ccc(C(=O)C3CC3)cn2)c(C)cc1C(N)=O [XL888]
The assay can be described thus: phosphopeptide melting temperature shift (XL888 minus DMSO); higher = stabilised by drug treatment. To be noted: 100 µM; treatment time 2 h; layout: intact cells; SK-Mel 28. The procedure: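 Phospho-TPP in intact SK-Mel 28 cells treated with 100 uM XL888 or DMSO for 2 h, heated at 10 temperatures (37-67 C) for 3 min, soluble fraction TMT10plex-labelled and TiO2 phospho-enriched. Melting curves were fitted per phosphopeptide; the value is the melting point difference (drug minus vehicle) in each of two biological replicates.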

Compound in assay [2]: T1, XL888
The description is as above. The note with it: 100 µM; treatment time 2 h; layout: intact cells; SK-Mel 24. As for the experimental part:
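Phospho-TPP in intact SK-Mel 24 cells treated with 100 uM XL888 or DMSO for 2 h, heated at 10 temperatures (37-67 C) for 3 min, soluble fraction TMT10plex-labelled and TiO2 phospho-enriched. Melting curves were fitted per phosphopeptide; the value is the melting point difference (drug minus vehicle) in each of two biological replicates.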

± gives the standard deviation of the averaged measurements. This data set is noisy: repeats of one test often differ as much as different tests do.

On to “EEF1D phosphosite_133 (phosphosite position: 133) (UniProt P29692)”, for which the “phosphopeptide melting temperature shift” value with XL888 [1] turned out to be 1.25 ± 0.61 °C; with XL888 [2], 0.585 ± 0.87 °C.

With “CANX phosphosite_583 (phosphosite position: 583) (UniProt P27824)”, the “phosphopeptide melting temperature shift” value in the assay with XL888 [1] was 1.28 °C; in the assay with XL888 [2] it was 3.51 °C.

Turning to “UniProt Q8IZP0-2_phosphosite_220 (phosphosite position: 220)”, the “phosphopeptide melting temperature shift” value is -0.577 ± 0.31 °C in the assay with XL888 [1] and 0.204 °C with XL888 [2].

“UniProt Q9GZR7-2_phosphosite_82 (phosphosite position: 82)”: the “phosphopeptide melting temperature shift” value is 2.36 °C with XL888 [1] and -0.546 °C with XL888 [2].

Turning to “NKAP phosphosite_149 (phosphosite position: 149) (UniProt Q8N5F7)”, the “phosphopeptide melting temperature shift” value with XL888 [1] was -0.281 ± 1.8 °C; with XL888 [2], 0.515 ± 0.46 °C.

As for “LRWD1 phosphosite_243 (phosphosite position: 243) (UniProt Q9UFC0)”, the “phosphopeptide melting temperature shift” value stood at 0.22 ± 0.94 °C with XL888 [1] and 0.718 °C with XL888 [2].

For “ARHGEF11 phosphosite_1458 (phosphosite position: 1458) (UniProt O15085)”, the results for the “phosphopeptide melting temperature shift” value with XL888 [1] and in the assay with XL888 [2] were 1.46 °C and 3.01 °C, respectively.

For “LPXN phosphosite_19 (phosphosite position: 19) (UniProt O60711)”, the “phosphopeptide melting temperature shift” value was 4.62 ± 1 °C in the assay with XL888 [1] and -1.19 °C in the assay with XL888 [2].

With “UniProt Q9UPU9-2_phosphosite_319 (phosphosite position: 319)”, the “phosphopeptide melting temperature shift” value with XL888 [1] was 2.57 ± 2.5 °C; with XL888 [2], -0.114 °C.

On to “EBAG9 phosphosite_36 (phosphosite position: 36) (UniProt O00559)”, for which the “phosphopeptide melting temperature shift” value in the assay with XL888 [1] amounted to 0.793 ± 0.6 °C; in the assay with XL888 [2] it was 1.92 ± 0.34 °C.

For “SRRM2 phosphosite_1320 (phosphosite position: 1320) (UniProt Q9UQ35)”, the “phosphopeptide melting temperature shift” value with XL888 [1] turned out to be 2.48 ± 0.72 °C; in the assay with XL888 [2] it was 0.231 ± 0.37 °C.

For the target “RRBP1 phosphosite_1277 (phosphosite position: 1277) (UniProt Q9P2E9)”, the “phosphopeptide melting temperature shift” value was found to be 2.5 ± 1.1 °C in the assay with XL888 [1] and 0.763 °C with XL888 [2].

Take “UniProt P56693_phosphosite_24 (phosphosite position: 24)”: the “phosphopeptide melting temperature shift” value with XL888 [1] amounted to 2.54 ± 0.79 °C; in the assay with XL888 [2], 3.41 °C.

Take “ARFGEF2 phosphosite_227 (phosphosite position: 227) (UniProt Q9Y6D5)”: the results for the “phosphopeptide melting temperature shift” value with XL888 [1] and with XL888 [2] were 1.26 ± 0.2 °C and 0.572 °C, respectively.

Take “SNTB1 phosphosite_219 (phosphosite position: 219) (UniProt Q13884)”: the results for the “phosphopeptide melting temperature shift” value with XL888 [1] and with XL888 [2] were 3.08 °C and 0.527 °C, respectively.

For the target “UniProt Q15149-4_phosphosite_21 (phosphosite position: 21)”, the “phosphopeptide melting temperature shift” value is -0.947 °C with XL888 [1] and -0.826 °C in the assay with XL888 [2].

In the case of “TRIM28 phosphosite_473 (phosphosite position: 473) (UniProt Q13263)”, the “phosphopeptide melting temperature shift” value in the assay with XL888 [1] is -1.54 ± 0.47 °C; with XL888 [2], -0.14 ± 0.018 °C.

Regarding “ARFGAP3 phosphosite_143 (phosphosite position: 143) (UniProt Q9NP61)”, the “phosphopeptide melting temperature shift” value with XL888 [1] was 1.21 ± 0.54 °C; with XL888 [2] it was -1.27 °C.

Consider “UniProt Q8TDZ2-2_phosphosite_531 (phosphosite position: 531)”, for which the “phosphopeptide melting temperature shift” value in the assay with XL888 [1] came out at 1.69 ± 0.75 °C; in the assay with XL888 [2], 1.54 ± 1.8 °C.

As for “NPM1 phosphosite_70 (phosphosite position: 70) (UniProt P06748)”, the “phosphopeptide melting temperature shift” value with XL888 [1] is -0.911 ± 0.21 °C; with XL888 [2] it was -1.48 °C.

On to “EPS15 phosphosite_814 (phosphosite position: 814) (UniProt P42566)”, for which the “phosphopeptide melting temperature shift” value in the assay with XL888 [1] amounted to 0.72 °C; with XL888 [2] it was 0.444 °C.

Regarding “UniProt O94804_phosphosite_952 (phosphosite position: 952)”, the “phosphopeptide melting temperature shift” value with XL888 [1] is 0.183 ± 0.45 °C; with XL888 [2], -0.342 °C.

Consider “RAD9A phosphosite_328 (phosphosite position: 328) (UniProt Q99638)”, for which the “phosphopeptide melting temperature shift” value with XL888 [1] was 0.594 °C; in the assay with XL888 [2], -0.707 °C.

“AHNAK phosphosite_135 (phosphosite position: 135) (UniProt Q09666)”: the “phosphopeptide melting temperature shift” value stood at 0.782 ± 2.3 °C with XL888 [1] and 1.88 °C with XL888 [2].

As to “UniProt Q641Q2-2_phosphosite_333 (phosphosite position: 333)”, the “phosphopeptide melting temperature shift” value with XL888 [1] is 1.11 ± 0.77 °C; with XL888 [2] it was 0.274 °C.

“PRKAR2B phosphosite_114 (phosphosite position: 114) (UniProt P31323)”: the figures for the “phosphopeptide melting temperature shift” value with XL888 [1] and with XL888 [2] were 0.635 ± 2.2 °C and 0.104 °C, respectively.

Regarding “UniProt Q9BVG4_phosphosite_181 (phosphosite position: 181)”, the “phosphopeptide melting temperature shift” value in the assay with XL888 [1] turned out to be 0.657 ± 0.54 °C; with XL888 [2], 1.43 °C.

In the case of “IWS1 phosphosite_377 (phosphosite position: 377) (UniProt Q96ST2)”, the “phosphopeptide melting temperature shift” value was 1.11 ± 0.34 °C with XL888 [1] and -1.54 °C with XL888 [2].

In the case of “NSUN2 phosphosite_743 (phosphosite position: 743) (UniProt Q08J23)”, the results for the “phosphopeptide melting temperature shift” value with XL888 [1] and with XL888 [2] were -0.581 ± 3.3 °C and 0.454 °C, respectively.

For the target “UniProt Q9P1Y6-2_phosphosite_973 (phosphosite position: 973)”, the figures for the “phosphopeptide melting temperature shift” value with XL888 [1] and with XL888 [2] were 0.997 °C and -7.173 ± 0.035 °C, respectively.

In the case of “UniProt Q96N67-2_phosphosite_1383 (phosphosite position: 1383)”, the “phosphopeptide melting temperature shift” value with XL888 [1] was 0.534 ± 0.09 °C; in the assay with XL888 [2] it was 0.447 °C.

With “UniProt Q96BR1-2_phosphosite_129 (phosphosite position: 129)”, the “phosphopeptide melting temperature shift” value is 0.733 ± 0.45 °C in the assay with XL888 [1] and -0.535 °C in the assay with XL888 [2].

Turning to “UniProt P85037-2_phosphosite_282 (phosphosite position: 282)”, the “phosphopeptide melting temperature shift” value in the assay with XL888 [1] was 1.23 ± 0.42 °C; in the assay with XL888 [2], 2.81 °C.

For the target “MTDH phosphosite_426 (phosphosite position: 426) (UniProt Q86UE4)”, the entries for the “phosphopeptide melting temperature shift” value with XL888 [1] and with XL888 [2] were 2.12 °C and 1.1 °C, respectively.

Regarding “UniProt Q96K21-2_phosphosite_344 (phosphosite position: 344)”, the “phosphopeptide melting temperature shift” value with XL888 [1] is 2 °C; with XL888 [2], -0.368 °C.

With “UniProt Q5JSH3-2_phosphosite_403 (phosphosite position: 403)”, the “phosphopeptide melting temperature shift” value is 1.27 °C with XL888 [1] and 0.881 °C with XL888 [2].

“UniProt O94979-3_phosphosite_799 (phosphosite position: 799)”: the “phosphopeptide melting temperature shift” value was 1.77 ± 0.098 °C in the assay with XL888 [1] and 0.572 ± 0.55 °C with XL888 [2].
